In US20170044259A1:
These are yes or no findings as the source states them, for the method shown. Some binding calls cover weakened binding; strength is not graded here.

Chains of the proteins cited; added tags and fusions are not shown. Residues count along the entry.
UniProt Q15116, residues 25-167: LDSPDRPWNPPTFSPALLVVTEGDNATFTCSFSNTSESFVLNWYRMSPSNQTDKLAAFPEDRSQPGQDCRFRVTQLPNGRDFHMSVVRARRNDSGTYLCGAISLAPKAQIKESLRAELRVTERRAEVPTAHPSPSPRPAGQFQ

What was measured:
[1] = molecular target: human PD-1-Fc (R and D systems, Minneapolis, Minn.) (human) (UniProt Q15116); experiment: standard plate ELISA on hPD1 after overnight incubation with 60 ug/mL rh uPA
[2] = molecular target: human PD-1-His (R & D systems, Minneapolis, Minn.) (human) (UniProt Q15116); experiment: BLI (ForteBio Octet), antibody on the sensor, human PD-1-His in solution
[3] = molecular target: human PD-1-Fc (R and D systems, Minneapolis, Minn.) (human) (UniProt Q15116); experiment: plate ELISA on human PD-1-Fc
[4] = molecular target: human PD-1-His (R & D systems, Minneapolis, Minn.) (human) (UniProt Q15116); experiment: BLI

B1: A1.5 PD34 2001 activatable antibody incubated with recombinant human urokinase (rh uPA) (antibody, V domains shown, not shown: small tags and cut ends)
VH: EVQLVESGGGLVQPGGSLRLSCAASGFTFSGYAMSWVRQAPGKGLEWVAYISNSGGNAHYADSVKGRFTISRDNSKNTLYLQMNSLRAEDTAVYYCTREDYGTSPFVYWGQGTLVTVSS
VL: DIQLTQSPSSLSASVGDRVTITCRASESVDAYGISFMNWFQQKPGKAPKLLIYAASNQGSGVPSRFSGSGSGTDFTLTISSMQPEDFATYYCQQSKDVPWTFGQGTKLEIKR
For B1, the binding [1] was “binds”.

B2: Ba2 (antibody, human IgG4 S228P, kappa, V domains shown)
VH: QVQLVQSGAEVKKPGASVKMSCKASGYTFTDYYMDWVRQAPGQGLEWIGYIYPKNGGSSYAQKFQGRATLTVDTSTSTAYMELSSLRSEDTAVYYCARKVVATDYWGQGTLLTVSS
VL: DIQMTQSPSSLSASVGDRVTMTCKSSQSLLYSSNQKNYLAWYQQKPGKAPKLLIFWASIRESGVPSRFSGSGSGTDFTLTISSVQPEDFATYYCQQSDSYPWTFGQGTKLEIKR
B2 was tested, and the binding [2] was “binds”, the binding [3] was “binds” and the binding [4] was “binds”.
